Measurements reported in PubChem BioAssay AID1671195 (Yale University, 2021).
In all, the deposit lists about 22,000 reagents; shown is a part drawn at random. Of all reagents, about 1,510 (6.9%) were called active. 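Active includes knockdowns raising or lowering LDL uptake; positive z-scores mean more uptake, negative mean less.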

Test: 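Genes whose knockdown alters LDL uptake in liver cancer cells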 (primary screen)
Cell system: human Huh7 hepatoma cells
Reagent: siRNA pool against human genes, 18 nM
Time to read-out: about 2 to 2.5 days of knockdown, then 8 h LDL uptake
Treatment: DiI-labelled LDL at 30 µg/ml for 8 h, in lipoprotein-deficient serum medium
Read-out: 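Fluorescent LDL signal imaged in cells, scaled to the plate median, robust z-score for each replicate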
Direction: robust z-score: higher = more LDL uptake after knockdown
Call rule: 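Active when two or more replicates show a robust z-score above 2 or below -2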

With knock-down of SPARC the results were robust z-score, replicate 1 = -1.51; robust z-score, replicate 2 = -0.185; robust z-score, replicate 3 = -0.256; inactive.
Against LOC283584 (retired record), the entry reads robust z-score, replicate 1 = 0.787; robust z-score, replicate 2 = 0.862; robust z-score, replicate 3 = 0.896; inactive.
TRIM2 gave robust z-score, replicate 1 = -0.327; robust z-score, replicate 2 = -0.975; robust z-score, replicate 3 = 0.0217; inactive.
After knock-down of GAL3ST1, the screen gave robust z-score, replicate 1 = -0.529; robust z-score, replicate 2 = -1.31; robust z-score, replicate 3 = -0.869; inactive.
Depletion of MNX1 came out at: robust z-score, replicate 1 = -0.875; robust z-score, replicate 2 = -1.07; robust z-score, replicate 3 = -1.92; inactive.
With knock-down of BICC1 the results were robust z-score, replicate 1 = -1.05; robust z-score, replicate 2 = -1.32; robust z-score, replicate 3 = -0.871; inactive.
Depletion of PFAS gave: robust z-score, replicate 1 = 2.27; robust z-score, replicate 2 = 1.73; robust z-score, replicate 3 = 1.26; active.
Against S100A16 the deposit lists robust z-score, replicate 1 = -0.703; robust z-score, replicate 2 = -0.164; robust z-score, replicate 3 = -0.347; inactive.
For LINC00670, the values are robust z-score, replicate 1 = 0.175; robust z-score, replicate 2 = 0.113; robust z-score, replicate 3 = 0.442; inactive.
Against LOC441526 (retired record), the entry reads robust z-score, replicate 1 = -0.826; robust z-score, replicate 2 = -0.952; robust z-score, replicate 3 = -0.824; inactive.
For LSM11, the entry reads robust z-score, replicate 1 = 3.76; robust z-score, replicate 2 = 3.71; robust z-score, replicate 3 = 3.5; active.
Depletion of ZNF154 resulted in: robust z-score, replicate 1 = -0.612; robust z-score, replicate 2 = -0.384; robust z-score, replicate 3 = -1.16; inactive.
Against TMEM128 the deposit lists robust z-score, replicate 1 = -0.607; robust z-score, replicate 2 = -1; robust z-score, replicate 3 = -0.0569; inactive.
After knock-down of LOC441570 (retired record) the results were robust z-score, replicate 1 = 0.00496; robust z-score, replicate 2 = 0.121; robust z-score, replicate 3 = 0.307; inactive.
For MYPN the deposit lists robust z-score, replicate 1 = -0.763; robust z-score, replicate 2 = -1.21; robust z-score, replicate 3 = -0.983; inactive.
With knock-down of GPX3, the record shows robust z-score, replicate 1 = 0.92; robust z-score, replicate 2 = 1.16; robust z-score, replicate 3 = 1.44; inactive.
After knock-down of PAX8, the screen gave robust z-score, replicate 1 = -1.92; robust z-score, replicate 2 = -1.84; robust z-score, replicate 3 = -1.86; inactive.
After knock-down of TEX26, the record shows robust z-score, replicate 1 = 0.1; robust z-score, replicate 2 = 0.292; robust z-score, replicate 3 = 0.222; inactive.
Silencing of LOC338750 (retired record) resulted in: robust z-score, replicate 1 = -0.218; robust z-score, replicate 2 = -0.385; robust z-score, replicate 3 = -0.0094; inactive.
With knock-down of LOC145845, the record shows robust z-score, replicate 1 = -1.09; robust z-score, replicate 2 = -0.925; robust z-score, replicate 3 = -1.16; inactive.
Against CSK the deposit lists robust z-score, replicate 1 = 0.208; robust z-score, replicate 2 = -0.28; robust z-score, replicate 3 = 0.288; inactive.
HEPACAM2 gave robust z-score, replicate 1 = -1.28; robust z-score, replicate 2 = -0.744; robust z-score, replicate 3 = -1.3; inactive.
ADGRG1 scored robust z-score, replicate 1 = 1.61; robust z-score, replicate 2 = 1.49; robust z-score, replicate 3 = 1.6; inactive.
Against SPI1 the deposit lists robust z-score, replicate 1 = 0.298; robust z-score, replicate 2 = 0.631; robust z-score, replicate 3 = -0.436; inactive.

Reformatted: entries from further up.
Gene	robust z-score, replicate 1	robust z-score, replicate 2	robust z-score, replicate 3	Call
PFAS	2.27	1.73	1.26	active
S100A16	-0.703	-0.164	-0.347	inactive
LINC00670	0.175	0.113	0.442	inactive
LOC441526 (retired record)	-0.826	-0.952	-0.824	inactive
